Test results published in paper PMC4027156.
Changes are numbered by the printed parent chain. For some assays here: Negatives hold for the conditions tested. For some assays here: At least one verdict rests on a figure or table, not on a statement of the authors. Where a protein sequence is shown, tags need not be part of it. For some assays here: A weaker result is weaker than the reference pair of the same experiment. For some assays here: The exact form of at least one protein or probe is not confirmed.

How the values were obtained:
[1] = target: T1, caZαPKZ WT (Carassius auratus) (UniProt Q7T2M9); test: X-ray crystallography (1.7 A); settings: Mn2+; recombinant protein; residues 1-75; protein details: His tag (pET28a), thrombin-treated
T1 sequence (looked up): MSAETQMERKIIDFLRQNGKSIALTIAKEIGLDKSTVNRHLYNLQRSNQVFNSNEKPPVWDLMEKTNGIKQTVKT

[2] = target: T2, caZαPKZ S35A/R39A/K56A/P57A (Carassius auratus) (UniProt Q7T2M9); test: CD B-to-Z transition; settings: group 3 (appeared to lose activity); recombinant protein; residues 1-75; protein details: His tag (pET28a), thrombin-treated
T2 sequence (looked up): T1 sequence (looked up) with S35A, R39A, K56A, P57A

[3] = target: T3, caZαPKZ S35A/R39A/K56A (Carassius auratus) (UniProt Q7T2M9); test: CD B-to-Z transition; settings: group 3, slow rate measured; recombinant protein; residues 1-75; protein details: His tag (pET28a), thrombin-treated
T3 sequence (looked up): T1 sequence (looked up) with S35A, R39A, K56A

[4] = target: T4, caZαPKZ R39A/K56A/P57A (Carassius auratus) (UniProt Q7T2M9); test: CD B-to-Z transition; settings: no detectable B-to-Z transition activity; recombinant protein; residues 1-75; protein details: His tag (pET28a), thrombin-treated
T4 sequence (looked up): T1 sequence (looked up) with R39A, K56A, P57A

[5] = target: T5, caZαPKZ R39A (Carassius auratus) (UniProt Q7T2M9); test: CD B-to-Z transition; settings: recombinant protein; residues 1-75; protein details: His tag (pET28a), thrombin-treated
T5 sequence (looked up): T1 sequence (looked up) with R39A

[6] = target: T6, caZαPKZ K56A (Carassius auratus) (UniProt Q7T2M9); test: CD B-to-Z transition; settings: slower transition rate than WT; recombinant protein; residues 1-75; protein details: His tag (pET28a), thrombin-treated
T6 sequence (looked up): T1 sequence (looked up) with K56A

[7] = target: T7, caZαPKZ N38A (Carassius auratus) (UniProt Q7T2M9); test: CD B-to-Z transition; settings: recombinant protein; residues 1-75; protein details: His tag (pET28a), thrombin-treated
T7 sequence (looked up): T1 sequence (looked up) with N38A

[8] = target: T1, caZαPKZ WT (Carassius auratus); test: CD B-to-Z transition; settings: full conversion at 4:1 protein/DNA; recombinant protein; residues 1-75; protein details: His tag (pET28a), thrombin-treated
[9] = target: T8, caZαPKZ Y42A (Carassius auratus) (UniProt Q7T2M9); test: CD B-to-Z transition; settings: activity almost completely abolished, misfolding possible; recombinant protein; residues 1-75; protein details: His tag (pET28a), thrombin-treated
T8 sequence (looked up): T1 sequence (looked up) with Y42A

[10] = target: T9, caZαPKZ S35K (Carassius auratus) (UniProt Q7T2M9); test: CD B-to-Z transition; settings: faster than WT; recombinant protein; residues 1-75; protein details: His tag (pET28a), thrombin-treated
T9 sequence (looked up): T1 sequence (looked up) with S35K

[11] = target: T10, caZαPKZ K56T (Carassius auratus) (UniProt Q7T2M9); test: CD B-to-Z transition; settings: slower than WT; recombinant protein; residues 1-75; protein details: His tag (pET28a), thrombin-treated
T10 sequence (looked up): T1 sequence (looked up) with K56T

[12] = target: T11, caZαPKZ K34A (Carassius auratus) (UniProt Q7T2M9); test: CD B-to-Z transition; settings: recombinant protein; residues 1-75; protein details: His tag (pET28a), thrombin-treated
T11 sequence (looked up): T1 sequence (looked up) with K34A

[13] = target: T12, caZαPKZ W60A (Carassius auratus) (UniProt Q7T2M9); test: CD B-to-Z transition; settings: activity almost completely abolished, misfolding possible; recombinant protein; residues 1-75; protein details: His tag (pET28a), thrombin-treated
T12 sequence (looked up): T1 sequence (looked up) with W60A

[14] = target: T13, caZαPKZ K56R (Carassius auratus) (UniProt Q7T2M9); test: CD B-to-Z transition; settings: transition twice as fast as WT; recombinant protein; residues 1-75; protein details: His tag (pET28a), thrombin-treated
T13 sequence (looked up): T1 sequence (looked up) with K56R

[15] = target: T14, caZαPKZ S35K/K56T (Carassius auratus) (UniProt Q7T2M9); test: CD B-to-Z transition; settings: slower than WT; recombinant protein; residues 1-75; protein details: His tag (pET28a), thrombin-treated
T14 sequence (looked up): T1 sequence (looked up) with S35K, K56T

[16] = target: T15, caZαPKZ S35A (Carassius auratus) (UniProt Q7T2M9); test: CD B-to-Z transition; settings: recombinant protein; residues 1-75; protein details: His tag (pET28a), thrombin-treated
T15 sequence (looked up): T1 sequence (looked up) with S35A

hZαDAI (human) = target: T16, hZαDAI (human) (UniProt Q9H171); test: CD B-to-Z transition; settings: recombinant protein
T16 sequence (looked up, limits assumed): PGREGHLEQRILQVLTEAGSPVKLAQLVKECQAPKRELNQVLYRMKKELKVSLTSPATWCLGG

Sequence	binding result [1]	binding result [2]	binding result [3]	binding result [4]	binding result [5]	binding result [6]	binding result [7]	binding result [8]	binding result [9]	binding result [10]	binding result [11]	binding result [12]	binding result [13]	binding result [14]	binding result [15]	binding result [16]	binding result (hZαDAI (human))
TCGCGCG / TCGCGCG [ds-dT(dCdG)3]	binds																
CGCGCGCGCGCG (double strand) [ds-(dCdG)6]		no binding	binds more weakly	no binding	binds	binds	binds more weakly	binds	binds more weakly	binds	binds	binds more weakly	binds more weakly	binds	binds	binds	binds
